Assay results reported in the supplement of paper PMC7666118.
This is one part of the list.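 How the source made its calls: active = dose-dependent thermal stabilisation significant by F-test of dose-response against flat model at 10% FDR; inactive = not significant.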

By UniProt entry, the sequences of proteins in these tests, tags left out. Where a name states a change or a piece, a line headed by the entry shows the natural chain unless it says otherwise.
UniProt O00303, whole entry: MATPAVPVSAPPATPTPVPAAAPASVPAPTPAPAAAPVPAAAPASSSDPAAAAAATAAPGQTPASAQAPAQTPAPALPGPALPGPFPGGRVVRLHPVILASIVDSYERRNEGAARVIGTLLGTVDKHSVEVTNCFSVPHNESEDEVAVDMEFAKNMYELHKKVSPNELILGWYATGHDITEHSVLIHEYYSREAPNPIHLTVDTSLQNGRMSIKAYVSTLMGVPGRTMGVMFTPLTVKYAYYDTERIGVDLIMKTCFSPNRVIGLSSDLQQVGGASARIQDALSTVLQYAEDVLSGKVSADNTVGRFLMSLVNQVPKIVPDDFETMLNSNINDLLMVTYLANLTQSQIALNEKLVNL
UniProt Q969W3: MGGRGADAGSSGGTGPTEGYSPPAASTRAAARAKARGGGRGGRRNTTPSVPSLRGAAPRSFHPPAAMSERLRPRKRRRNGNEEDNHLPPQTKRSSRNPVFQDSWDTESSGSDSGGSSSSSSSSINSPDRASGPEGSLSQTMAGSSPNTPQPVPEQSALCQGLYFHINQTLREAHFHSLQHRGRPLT
UniProt Q9Y6X4: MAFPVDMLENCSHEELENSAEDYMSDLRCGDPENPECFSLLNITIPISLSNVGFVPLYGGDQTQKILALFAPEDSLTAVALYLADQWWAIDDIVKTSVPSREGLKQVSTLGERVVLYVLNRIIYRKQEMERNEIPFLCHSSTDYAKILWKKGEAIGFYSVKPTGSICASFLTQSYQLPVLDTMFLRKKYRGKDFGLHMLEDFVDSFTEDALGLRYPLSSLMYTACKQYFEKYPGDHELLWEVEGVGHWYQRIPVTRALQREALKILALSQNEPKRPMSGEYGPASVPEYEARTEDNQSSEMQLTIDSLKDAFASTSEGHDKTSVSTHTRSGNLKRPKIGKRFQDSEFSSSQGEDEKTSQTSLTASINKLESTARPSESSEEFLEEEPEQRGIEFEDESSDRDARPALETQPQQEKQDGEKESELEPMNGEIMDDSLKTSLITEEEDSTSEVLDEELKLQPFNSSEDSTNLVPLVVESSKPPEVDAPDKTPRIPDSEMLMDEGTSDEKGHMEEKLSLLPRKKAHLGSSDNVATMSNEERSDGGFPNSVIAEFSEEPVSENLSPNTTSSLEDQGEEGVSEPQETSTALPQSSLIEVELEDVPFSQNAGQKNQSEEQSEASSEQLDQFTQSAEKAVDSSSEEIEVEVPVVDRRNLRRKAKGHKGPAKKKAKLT
UniProt O43768: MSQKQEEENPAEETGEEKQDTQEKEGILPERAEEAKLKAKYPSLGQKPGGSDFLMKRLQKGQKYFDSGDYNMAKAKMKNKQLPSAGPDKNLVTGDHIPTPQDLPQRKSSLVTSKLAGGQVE
UniProt Q9NWS6: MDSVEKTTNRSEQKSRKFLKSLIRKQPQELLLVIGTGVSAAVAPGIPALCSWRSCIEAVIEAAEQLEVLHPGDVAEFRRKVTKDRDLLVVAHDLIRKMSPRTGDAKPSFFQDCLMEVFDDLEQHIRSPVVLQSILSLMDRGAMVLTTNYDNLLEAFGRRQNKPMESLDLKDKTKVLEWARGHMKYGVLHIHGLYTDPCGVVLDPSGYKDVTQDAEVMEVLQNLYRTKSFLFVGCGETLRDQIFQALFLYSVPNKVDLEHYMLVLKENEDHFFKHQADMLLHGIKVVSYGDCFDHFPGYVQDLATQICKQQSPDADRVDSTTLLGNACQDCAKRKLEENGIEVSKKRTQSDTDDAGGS
UniProt Q7Z589: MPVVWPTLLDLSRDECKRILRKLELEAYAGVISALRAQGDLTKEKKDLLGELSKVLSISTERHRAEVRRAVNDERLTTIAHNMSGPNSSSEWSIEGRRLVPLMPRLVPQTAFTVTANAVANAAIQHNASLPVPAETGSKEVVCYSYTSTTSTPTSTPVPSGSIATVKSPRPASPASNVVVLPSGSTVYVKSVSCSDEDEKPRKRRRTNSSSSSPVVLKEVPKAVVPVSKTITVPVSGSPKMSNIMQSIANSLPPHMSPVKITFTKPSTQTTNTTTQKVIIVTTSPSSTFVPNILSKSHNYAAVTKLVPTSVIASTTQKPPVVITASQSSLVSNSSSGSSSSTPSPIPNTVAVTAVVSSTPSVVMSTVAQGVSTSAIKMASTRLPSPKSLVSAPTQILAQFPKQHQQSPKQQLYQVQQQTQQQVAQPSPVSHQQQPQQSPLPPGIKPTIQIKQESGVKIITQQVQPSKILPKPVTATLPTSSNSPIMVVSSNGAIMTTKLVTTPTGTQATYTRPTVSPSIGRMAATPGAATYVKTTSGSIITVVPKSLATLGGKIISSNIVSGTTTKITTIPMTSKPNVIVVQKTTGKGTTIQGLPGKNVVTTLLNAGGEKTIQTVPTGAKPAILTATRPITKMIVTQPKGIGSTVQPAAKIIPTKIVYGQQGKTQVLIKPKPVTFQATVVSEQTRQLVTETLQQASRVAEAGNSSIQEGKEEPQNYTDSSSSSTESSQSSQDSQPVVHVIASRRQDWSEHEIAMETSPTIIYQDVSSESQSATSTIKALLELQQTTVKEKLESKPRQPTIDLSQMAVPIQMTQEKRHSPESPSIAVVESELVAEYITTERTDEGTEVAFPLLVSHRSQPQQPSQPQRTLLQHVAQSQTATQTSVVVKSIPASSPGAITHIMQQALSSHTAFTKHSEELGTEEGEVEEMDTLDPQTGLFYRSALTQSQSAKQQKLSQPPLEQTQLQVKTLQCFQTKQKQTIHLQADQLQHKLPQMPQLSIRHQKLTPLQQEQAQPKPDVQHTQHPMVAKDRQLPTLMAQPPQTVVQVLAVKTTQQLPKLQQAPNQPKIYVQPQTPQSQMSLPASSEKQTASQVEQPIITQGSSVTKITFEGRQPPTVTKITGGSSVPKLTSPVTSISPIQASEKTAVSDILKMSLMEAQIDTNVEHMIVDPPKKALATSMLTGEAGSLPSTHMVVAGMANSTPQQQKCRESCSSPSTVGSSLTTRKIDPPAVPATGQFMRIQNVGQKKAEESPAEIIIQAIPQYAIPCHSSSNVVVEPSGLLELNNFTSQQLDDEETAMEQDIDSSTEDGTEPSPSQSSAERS
UniProt O94915: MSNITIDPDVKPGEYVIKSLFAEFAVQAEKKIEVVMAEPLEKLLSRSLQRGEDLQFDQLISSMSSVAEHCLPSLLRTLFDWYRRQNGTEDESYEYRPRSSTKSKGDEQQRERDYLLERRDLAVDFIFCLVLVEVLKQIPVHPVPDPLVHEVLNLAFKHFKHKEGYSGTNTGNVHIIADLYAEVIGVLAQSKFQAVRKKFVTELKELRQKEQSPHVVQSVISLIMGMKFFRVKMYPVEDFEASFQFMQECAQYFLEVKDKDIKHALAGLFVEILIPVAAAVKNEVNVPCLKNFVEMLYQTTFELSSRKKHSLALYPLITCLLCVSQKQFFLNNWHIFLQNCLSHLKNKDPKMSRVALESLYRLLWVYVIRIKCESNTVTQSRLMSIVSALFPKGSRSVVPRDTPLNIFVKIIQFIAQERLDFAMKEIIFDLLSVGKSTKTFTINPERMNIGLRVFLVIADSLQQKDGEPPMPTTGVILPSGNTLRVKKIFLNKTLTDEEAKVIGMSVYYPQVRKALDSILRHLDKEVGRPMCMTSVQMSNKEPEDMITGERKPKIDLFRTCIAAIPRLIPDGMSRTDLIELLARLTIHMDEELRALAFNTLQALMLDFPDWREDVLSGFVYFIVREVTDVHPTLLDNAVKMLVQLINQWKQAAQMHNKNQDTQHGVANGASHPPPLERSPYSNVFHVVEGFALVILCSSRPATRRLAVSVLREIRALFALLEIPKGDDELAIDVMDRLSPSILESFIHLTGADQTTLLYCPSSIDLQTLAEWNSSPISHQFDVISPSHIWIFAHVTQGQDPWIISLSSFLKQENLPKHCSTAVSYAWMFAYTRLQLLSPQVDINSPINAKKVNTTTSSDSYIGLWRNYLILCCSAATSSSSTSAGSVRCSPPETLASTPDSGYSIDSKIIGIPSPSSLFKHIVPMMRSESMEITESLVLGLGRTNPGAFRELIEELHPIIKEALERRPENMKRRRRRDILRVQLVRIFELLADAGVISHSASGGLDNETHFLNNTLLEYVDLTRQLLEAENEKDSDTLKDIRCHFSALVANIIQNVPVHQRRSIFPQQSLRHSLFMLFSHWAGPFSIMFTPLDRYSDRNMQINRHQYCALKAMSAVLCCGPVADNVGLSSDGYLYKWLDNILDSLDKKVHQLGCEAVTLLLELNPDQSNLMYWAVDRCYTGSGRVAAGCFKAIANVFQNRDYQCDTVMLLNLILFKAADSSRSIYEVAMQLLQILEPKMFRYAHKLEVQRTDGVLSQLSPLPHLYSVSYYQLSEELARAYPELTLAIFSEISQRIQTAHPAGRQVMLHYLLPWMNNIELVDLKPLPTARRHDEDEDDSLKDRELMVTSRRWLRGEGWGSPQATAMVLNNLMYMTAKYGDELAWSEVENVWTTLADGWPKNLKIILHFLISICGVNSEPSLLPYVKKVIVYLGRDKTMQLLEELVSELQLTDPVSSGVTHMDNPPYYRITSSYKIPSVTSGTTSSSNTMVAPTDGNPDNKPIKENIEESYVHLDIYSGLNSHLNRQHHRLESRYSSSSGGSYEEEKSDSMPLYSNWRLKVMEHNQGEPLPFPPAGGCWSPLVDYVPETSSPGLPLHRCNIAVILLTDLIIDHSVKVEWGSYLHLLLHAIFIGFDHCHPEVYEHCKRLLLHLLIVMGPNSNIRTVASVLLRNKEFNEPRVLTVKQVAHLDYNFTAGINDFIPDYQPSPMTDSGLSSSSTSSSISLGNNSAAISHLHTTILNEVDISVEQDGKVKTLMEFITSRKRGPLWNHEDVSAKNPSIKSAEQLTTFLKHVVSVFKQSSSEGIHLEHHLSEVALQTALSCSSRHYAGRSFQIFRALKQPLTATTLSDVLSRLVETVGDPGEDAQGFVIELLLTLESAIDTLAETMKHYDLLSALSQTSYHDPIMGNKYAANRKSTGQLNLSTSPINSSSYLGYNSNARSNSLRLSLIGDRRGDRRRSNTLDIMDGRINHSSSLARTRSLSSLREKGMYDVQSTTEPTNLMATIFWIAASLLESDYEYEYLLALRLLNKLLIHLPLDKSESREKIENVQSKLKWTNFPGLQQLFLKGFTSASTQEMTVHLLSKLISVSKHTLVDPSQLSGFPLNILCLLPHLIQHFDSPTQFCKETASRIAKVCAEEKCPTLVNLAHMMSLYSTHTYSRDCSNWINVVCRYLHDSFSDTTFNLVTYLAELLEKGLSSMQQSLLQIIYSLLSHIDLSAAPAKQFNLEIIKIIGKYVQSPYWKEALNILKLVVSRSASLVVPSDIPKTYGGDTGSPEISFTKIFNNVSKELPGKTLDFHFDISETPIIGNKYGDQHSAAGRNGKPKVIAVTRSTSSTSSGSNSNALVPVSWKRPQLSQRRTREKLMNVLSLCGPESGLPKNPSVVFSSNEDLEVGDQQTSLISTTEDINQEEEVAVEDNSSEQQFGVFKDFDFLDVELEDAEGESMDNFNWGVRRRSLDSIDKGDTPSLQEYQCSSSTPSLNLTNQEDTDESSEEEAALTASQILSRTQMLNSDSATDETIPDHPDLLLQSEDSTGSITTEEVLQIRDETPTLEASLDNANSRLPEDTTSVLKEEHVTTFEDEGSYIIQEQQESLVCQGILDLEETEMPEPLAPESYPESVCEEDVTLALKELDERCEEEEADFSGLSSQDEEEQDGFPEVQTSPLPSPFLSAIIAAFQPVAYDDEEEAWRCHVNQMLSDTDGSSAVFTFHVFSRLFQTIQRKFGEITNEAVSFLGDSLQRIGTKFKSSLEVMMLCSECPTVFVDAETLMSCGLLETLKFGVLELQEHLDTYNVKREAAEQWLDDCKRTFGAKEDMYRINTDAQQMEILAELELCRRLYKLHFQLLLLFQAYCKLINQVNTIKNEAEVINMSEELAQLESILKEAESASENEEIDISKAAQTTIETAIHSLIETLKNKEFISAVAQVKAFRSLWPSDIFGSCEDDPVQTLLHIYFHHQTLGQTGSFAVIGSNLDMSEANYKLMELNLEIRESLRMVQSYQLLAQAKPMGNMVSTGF
UniProt P10109: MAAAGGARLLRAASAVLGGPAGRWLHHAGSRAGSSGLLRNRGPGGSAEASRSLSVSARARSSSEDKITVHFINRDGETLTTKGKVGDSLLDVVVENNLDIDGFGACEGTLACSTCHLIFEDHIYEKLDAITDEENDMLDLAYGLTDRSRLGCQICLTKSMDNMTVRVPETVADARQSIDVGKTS
UniProt Q9UM22: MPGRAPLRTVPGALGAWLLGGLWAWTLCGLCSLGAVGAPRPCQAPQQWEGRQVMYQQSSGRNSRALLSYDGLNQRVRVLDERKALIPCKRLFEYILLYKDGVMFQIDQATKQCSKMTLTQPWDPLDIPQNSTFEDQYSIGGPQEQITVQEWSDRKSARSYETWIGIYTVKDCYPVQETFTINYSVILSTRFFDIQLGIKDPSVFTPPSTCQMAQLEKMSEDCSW
UniProt P49789: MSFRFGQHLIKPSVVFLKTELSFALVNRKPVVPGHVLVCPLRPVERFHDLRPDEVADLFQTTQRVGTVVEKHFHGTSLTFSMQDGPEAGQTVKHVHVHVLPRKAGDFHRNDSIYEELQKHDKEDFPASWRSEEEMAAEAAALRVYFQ

The targets below were run with Nc1nc2c(ncn2[C@@H]2O[C@H](COP(=O)(O)OP(=O)(O)OP(=O)(O)O)[C@@H](O)[C@H]2O)c(=O)[nH]1 (assay: dose-dependent thermal stabilisation call (2D-TPP, DLPTP, 10% FDR) (binary (1 = stabilised)); higher = stabilised by the compound). Conditions: system: Jurkat gel-filtered lysate; concentration range 1-500 µM.
Experimental: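 2D thermal proteome profiling in gel-filtered Jurkat E6.1 lysate (2 mg/ml) treated with NaGTP (0, 1, 10, 100, 500 uM) for 10 min at room temperature, then heated 3 min at one of 12 temperatures (42-63.9 C). Soluble protein was quantified by TMT10 MS. The value is the DLPTP call of the paper: dose-dependent thermal stabilisation over all temperatures at 10% FDR (F-test of a dose-response against a flat model); one experiment, one call per tested protein.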

Target | dose-dependent thermal stabilisation call
EMD (UniProt P50402) | inactive: 0
EIF3F (UniProt O00303) | inactive: 0
FAM104A (UniProt Q969W3) | inactive: 0
FAM169A (UniProt Q9Y6X4) | inactive: 0
ENSA (UniProt O43768) | inactive: 0
EXOSC8 (UniProt Q96B26) | inactive: 0
FHL3 (UniProt Q13643) | inactive: 0
ELOB (UniProt Q15370) | inactive: 0
EIPR1 (UniProt Q53HC9) | inactive: 0
EXOSC5 (UniProt Q9NQT4) | inactive: 0
FBXO5 (UniProt Q9UKT4) | inactive: 0
FAM133B (UniProt Q5BKY9) | inactive: 0
FUBP1 (UniProt Q96AE4) | inactive: 0
FTH1 (UniProt P02794) | inactive: 0
FAM207A (UniProt Q9NSI2) | inactive: 0
FEM1B (UniProt Q9UK73) | inactive: 0
ELP3 (UniProt Q9H9T3) | inactive: 0
FAM118A (UniProt Q9NWS6) | inactive: 0
ELAC1 (UniProt Q9H777) | inactive: 0
FANCI (UniProt Q9NVI1) | inactive: 0

Taken from the results shown for reference:
Target | dose-dependent thermal stabilisation call
FAM118A (UniProt Q9NWS6) | inactive: 0
ELAC1 (UniProt Q9H777) | inactive: 0

(next part)

Target | dose-dependent thermal stabilisation call
ESYT2 (UniProt A0FGR8) | inactive: 0
FAHD2A (UniProt Q96GK7) | inactive: 0
FARSA (UniProt Q9Y285) | active: 1
EMSY (UniProt Q7Z589) | inactive: 0
ERCC6L (UniProt Q2NKX8) | inactive: 0
ENGASE (UniProt Q8NFI3) | inactive: 0
FRYL (UniProt O94915) | inactive: 0
ERICH5 (UniProt Q6P6B1) | inactive: 0
FDX1 (UniProt P10109) | inactive: 0
FHL1 (UniProt Q13642) | inactive: 0
ERO1A (UniProt Q96HE7) | inactive: 0
FADD (UniProt Q13158) | inactive: 0
EHD1 (UniProt Q9H4M9) | active: 1
EPS15 (UniProt P42566) | inactive: 0
EXOC3 (UniProt O60645) | inactive: 0
EPDR1 (UniProt Q9UM22) | inactive: 0
EFHD1 (UniProt Q9BUP0) | inactive: 0
FHIT (UniProt P49789) | inactive: 0
EIF2B5 (UniProt Q13144) | inactive: 0
EPM2AIP1 (UniProt Q7L775) | inactive: 0
